# Test results reported in PubChem BioAssay AID504444 (National Center for Advancing Translational Sciences (NCATS), 2011).
# Where “and” joins values, the source holds several entries; their conditions need not be identical. Equal values may be shown once. Among all 360,000 compounds or so, about 7,500 (2.1%) were called active. Inconclusive means that the source gave no clear call. Such entries were picked first, then a sample of the others. The call rests on the fitted dose curve; in most records, active means well fitted inhibition curve with a large enough effect; inconclusive means small, poorly fitted or top-dose-only effect, or effect the other way; inactive means flat fitted curve, though single readings scatter. A potency beside an inconclusive call is a rough fit, not a confirmed value.
# Assay: Nrf2 qHTS screen for inhibitors; further: nearly all actives have a fitted effect of over 60% in size
# Conditions: A549 ARE-Fluc reporter, luciferase luminescence, 18-24 h; activity change, negative = inhibition: at 46 µM (top of the series)
# Method in brief: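 Nrf2 activity is the BugLite luminescence, read 15 min after reagent at room temperature, following CellTiter-Fluor cytotoxicity readout (30 min, 37C). Compound titrations were applied for 18-24 h to 5000 A549 ARE_Fluc cells/well in 5% FBS OPTI-MEM.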
# On the % scale 0 is the no-effect control and ±100 the full control effect; potency means the concentration at half of the fitted maximal effect.
SMILES,Potency,"activity change, negative = inhibition"
COc1cccc(-c2nc(SCc3ccc(C)cc3)n3[nH]c(=O)cc3n2)c1,"inconclusive: 29.1 µM [activator, single point]",–
O=C(NC1CCCN(Cc2ccc(Cl)cc2)C1)c1cccc(N2CCCC2=O)c1 (configuration not stated),"inconclusive: 25.9 µM [falling, partial curve, poor fit]",–
Cc1ccc(NC(=S)N2CCCCC2)cc1C,"inconclusive: 2.31 µM [activator, partial curve, poor fit]",–
CCOC(=O)c1c(C)oc2ncnc(N3CCN(c4ccccc4)CC3)c12,"inconclusive: 16.4 µM [falling, partial curve, poor fit]",–
Cc1ccc(NC(=O)c2ccccc2F)nc1,"inconclusive: 6.51 µM [activator, partial curve, poor fit]",–
Cc1noc(C)c1COc1ccccc1C(=O)NNC(=O)c1ccc(F)cc1,–,inactive: 5.11%
Cc1ccc(NC(=O)c2ccc(-n3nncc3-c3ccccc3)cc2)cc1,"inconclusive: 23.1 µM [falling, partial curve, poor fit]",–
COc1ccccc1C(=O)COC(=O)C1(C)CC1(Cl)Cl (configuration not stated),–,inactive: 8.6%
CC(Nc1nc(-c2ccc(F)cc2)cs1)c1nc2cc(Cl)c(Cl)cc2n1CCOCCO (configuration not stated),"inconclusive: 29.1 µM [falling, single point]",–
C/C(=N\Nc1cccc2cccnc12)c1ccc(C)cc1,"inconclusive: 29.1 µM [activator, single point]",–
COc1ccccc1-c1cc(C(=O)NCCc2ccccc2)no1,"inconclusive: 29.1 µM [activator, partial curve, poor fit] and inconclusive: 25.9 µM [activator, partial curve]",–
N/C(=N\OC(=O)c1ccccc1Cl)c1ccccc1,"inconclusive: 0.103 µM [activator, full curve, poor fit]",–
COC(=O)c1ccc(CSc2nnc(N)s2)cc1,"inconclusive: 16.4 µM [activator, partial curve, poor fit]",–
CCCCC(=O)OCC(=O)N1N=C(c2c[nH]c3ccccc23)C(O)C1c1ccc(OC)cc1 (configuration not stated),"inconclusive: 20.6 µM [falling, single point]",–
CCC(C(=O)NCc1cccc(Br)c1)n1nc(C)c2c(C)n(-c3ccccc3)nc2c1=O (configuration not stated),"inconclusive: 20.6 µM [falling, partial curve, poor fit]",–
CC(C)(C)n1nnnc1C(c1ccc(F)cc1)N1CCN(Cc2ccc3c(c2)OCO3)CC1 (configuration not stated),–,inactive: -7.86%
COc1cccc(C(=O)Oc2c(CN3CCOCC3)cc(Cl)c3cccnc23)c1,"inconclusive: 23.1 µM [falling, single point]",–

# Whole records from above:
# CCOC(=O)c1c(C)oc2ncnc(N3CCN(c4ccccc4)CC3)c12 reads Potency: inconclusive: 16.4 µM [falling, partial curve, poor fit]
# COc1cccc(C(=O)Oc2c(CN3CCOCC3)cc(Cl)c3cccnc23)c1 reads Potency: inconclusive: 23.1 µM [falling, single point]
